According to PubChem BioAssay AID602313 (National Center for Advancing Translational Sciences (NCATS), 2012):
Hit rate of the full screen: of about 390,000 compounds, about 760 (0.19%) were called active. Inconclusive results, whose numbers are uncertain, are shown with a selection of clear calls. The call rests on the fitted dose curve; in most records, active means well fitted inhibition curve with a large enough effect; inconclusive means small, poorly fitted or top-dose-only effect; inactive means flat fitted curve, though single readings scatter. A potency beside an inconclusive call is a rough fit, not a confirmed value.
Potency means the concentration at half of the fitted maximal effect.

Assay: qHTS for Inhibitors of Vif-A3F Interactions: qHTS; further: nearly all actives have a fitted effect of over 65% in size; on activity, negative = active: % of control where 0% means no effect
Details: HeLa A3F-eYFP + Vif (tagged APOBEC3F with the HIV-1 protein that degrades it), YFP fluorescence increase; series mostly up to 46.1 µM; activity, negative = active: at the top concentration
Outline: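 Fluorescence increase (Ex 488/Em 500-530) after overnight compound treatment at 37 deg C flags inhibition of Vif-driven A3F-eYFP loss in stable HeLa A3F-eYFP/Vif cells seeded overnight beforehand.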
In the case of `Oc1cc(NCCN2CCOCC2)cc2cccnc12`, the Potency is reported as inconclusive: 12.6 µM [inhibitor, single point].
With `COc1cc(CNC23CC4CC(CC(C4)C2)C3)ccc1OCc1ccccc1` the Potency was inconclusive: 3.16 µM [inhibitor, partial curve, poor fit].
For `CCOc1ccccc1NC(=S)NCCc1ccc(F)cc1`, the Potency was inconclusive: 25.1 µM [inhibitor, single point].
For `CCCCN(C)Cc1c(C(=O)N2CCc3ccccc3C2)nc2ccc(Cl)cn12`, the Potency was inconclusive: 4.47 µM [inhibitor, partial curve, poor fit].
For `COc1cc(/C=C(\C#N)c2nc3ccccc3s2)ccc1OCC(=O)Nc1ccccc1`, the Potency was inconclusive: 22.4 µM [inhibitor, partial curve, poor fit].
For `O=c1cc(CN2CCN(S(=O)(=O)c3ccc4ccccc4c3)CC2)nc2sccn12`, the Potency was inconclusive: 3.98 µM [inhibitor, partial curve, poor fit].
In the case of `CNC(=S)N/N=C/c1ccc(N(C)C)cc1`, the Potency is reported as inconclusive: 11.2 µM [inhibitor, single point].
For `COc1cc(C2C3=C(CCCC3=O)Nc3ccc4ncccc4c32)ccc1O` (configuration not stated), the Potency was inconclusive: 35.5 µM [inhibitor, single point].
For `COC(=O)c1cc(CSc2nc3ccccc3c(=O)n2C)oc1C`, the Potency was inconclusive: 35.5 µM [inhibitor, single point].
With `CC1Sc2ccc(C(=O)N3CCCC(C(F)(F)F)C3)cc2NC1=O` (configuration not stated) the Potency was inconclusive: 6.31 µM [inhibitor, single point].
In the case of `COc1ccc(C(=O)Nc2ccc3nc4c(c(Nc5ccc(OC)c(OC)c5)c3c2)CCCC4)c(OC)c1`, the Potency is reported as inconclusive: 20 µM [inhibitor, single point].
For `Cc1c(C(=O)OCC(=O)Nc2cccc(S(N)(=O)=O)c2)oc2c1ccc1ccccc12`, the Potency was inconclusive: 35.5 µM [inhibitor, single point].
For `O=C(CCCN1C(=O)/C(=C/c2ccccc2Cl)SC1=S)NNC(=O)c1ccc(Cl)cc1Cl`, the Potency was inconclusive: 15.8 µM [inhibitor, single point].
For `COCCCn1c(-c2cccc(Cl)c2)nc2c1c(=O)[nH]c(=O)n2Cc1ccccc1`, the Potency was inconclusive: 3.55 µM [inhibitor, single point].
With `CCC(OC(=O)C(C)N1C(=O)C(=O)c2ccccc21)C(=O)Nc1ccccc1OC` (configuration not stated) the Potency was inconclusive: 2.51 µM [inhibitor, partial curve, poor fit].
For `CCN(CC)CCn1c(=O)n(-c2ccc(Cl)cc2)c(=O)c2c3c(sc21)CN(C)CC3`, the Potency was inconclusive: 25.1 µM [inhibitor, single point].
With `COc1ccc(Cl)cc1NC(=O)NCCn1c(=O)oc2ccc(C)cc21` the “activity, negative = active” value was inactive: -0.711%.
In the case of `Cc1nc2ccc(NC(=O)c3cnc(Cl)c(Cl)c3)cc2s1`, the Potency is reported as inconclusive: 25.1 µM [inhibitor, single point].
In the case of `CN(C(=O)COC(=O)c1ccccc1Cc1ccccc1)c1c(N)n(Cc2ccccc2)c(=O)[nH]c1=O`, the Potency is reported as inconclusive: 35.5 µM [inhibitor, single point].
In the case of `CCN1C(=O)/C(=C\c2ccco2)C(C(=O)OC)=C1C`, the “activity, negative = active” value is reported as inactive: 6.97%.
With `O=C1CC(N2C(=O)/C(=C/C=C/c3ccccc3)SC2=S)C(=O)N1c1ccccc1` (configuration not stated) the Potency was inconclusive: 31.6 µM [inhibitor, single point].
With `CN1C(=O)c2ccccc2NC(=O)[C@]12O[C@@H]2c1cccc(O)c1` the Potency was inconclusive: 35.5 µM [inhibitor, single point].
With `CCCc1ccc(C(=O)[C@@H]2[C@@H](C(C)=O)N3c4ccc(F)cc4C=C[C@@H]3[C@@]23C(=O)Nc2ccccc23)cc1` the Potency was inconclusive: 35.5 µM [inhibitor, single point].
With `NC(=O)N/N=C/c1sc(=O)n(-c2ccccc2)c1Cl` the Potency was inconclusive: 28.2 µM [inhibitor, single point].
For `CCN(CC)CCn1c2c(c(SCC(=O)Nc3ccc(C)c(F)c3)nc1=O)CCC2`, the “activity, negative = active” value was inactive: 4.1%.
With `O=C(N/N=C/c1ccc[nH]1)c1ccc(Cl)cc1` the Potency was inconclusive: 22.4 µM [inhibitor, single point].
In the case of `CCC(=O)N1CCc2cc(CNC(=O)Nc3ccc(OC)cc3OC)ccc21`, the “activity, negative = active” value is reported as inactive: 1.04%.
For `Cc1cccc(Cn2c(=O)n(CCCC(=O)NCc3ccco3)c(=O)c3ccccc32)c1`, the Potency was inconclusive: 3.16 µM [inhibitor, single point].
In the case of `C#CCOc1c(Cl)cc(/C=C2/C(=O)ON=C2C)cc1OCC`, the “activity, negative = active” value is reported as inactive: -10.3%.
In the case of `CC(Sc1nnc(N)s1)C(=O)NC1CCCCC1C` (configuration not stated), the Potency is reported as inconclusive: 8.91 µM [inhibitor, partial curve, poor fit].
For `COc1ccc(COCC(O)CN2CCc3ccccc3C2)cc1OC` (configuration not stated), the Potency was inconclusive: 3.16 µM [inhibitor, single point].
With `CCOc1ccc(Nc2nc3ccccc3c3nnc(CC)n23)cc1` the “activity, negative = active” value was inactive: 5.34%.
With `Oc1c(Cl)cc(Cl)cc1/C=N/NC(=S)NC1CC2C=CC1C2` (configuration not stated) the Potency was inconclusive: 3.55 µM [inhibitor, single point].
For `COc1ccc(C=O)cc1CN1C(=O)c2ccccc2C1=O`, the Potency was inconclusive: 3.16 µM [inhibitor, single point].
For `O=c1c2ccccc2nc(/C=C/c2cc(Br)ccc2O)n1CCCO`, the Potency was inconclusive: 22.4 µM [inhibitor, single point].
With `O=C(CCNc1n[nH]c(=O)[nH]c1=O)N/N=C/c1ccc(Cl)cc1` the Potency was inconclusive: 35.5 µM [inhibitor, single point].
For `COc1ccccc1-n1ccnc1SCC(=O)NC(C)(C)C`, the Potency was inconclusive: 15.8 µM [inhibitor, single point].
In the case of `Cc1ccc(NC(=O)CC2=NC(=O)C(CC(=O)Nc3ccccc3C)S2)cc1` (configuration not stated), the Potency is reported as inconclusive: 35.5 µM [inhibitor, single point].
For `CCCCC1=CC2=CC(=O)C(C)(OC(=O)CC)C(=O)C2=CN1CCc1ccccn1` (configuration not stated), the “activity, negative = active” value was inactive: 3.94%.
With `CNC(=O)C(=O)NCCC1CCCCN1S(=O)(=O)c1cccs1` (configuration not stated) the Potency was inconclusive: 35.5 µM [inhibitor, partial curve, poor fit].
For `CC(C)C[C@H](NC(=O)c1nc[nH]c1C(=O)N1CCN(C(=O)OC(C)(C)C)CC1)C(=O)OC(C)(C)C`, the “activity, negative = active” value was inactive: -2.66%.
With `Cc1[nH]nc(-c2ccc(OCc3cnn(-c4ccccc4)c3)c(C)c2O)c1Oc1ccccc1` the Potency was inconclusive: 17.8 µM [inhibitor, single point].
With `O=C(NN=C1CCCC1)c1[nH]c2ccc(Br)cc2c1-c1ccccc1` the Potency was inconclusive: 10 µM [inhibitor, partial curve, poor fit].
In the case of `CCOc1cc(/C=C2\C(=O)ON=C2c2ccccc2)cc(Br)c1O`, the “activity, negative = active” value is reported as inactive: 2.18%.
For `O=C(COn1nnc2ccc(S(=O)(=O)N3CCOCC3)cc21)NCCc1ccccc1`, the Potency was inconclusive: 6.31 µM [inhibitor, single point].
For `CCOc1ccc(C2NC(=O)NC(C)=C2C(=O)OCc2ccccc2)cc1` (configuration not stated), the Potency was inconclusive: 2.51 µM [inhibitor, partial curve, poor fit].
In the case of `Cn1c(/C=C/c2ccc(Br)cc2)c([N+](=O)[O-])c(=O)n(C)c1=O`, the “activity, negative = active” value is reported as inactive: 13.3%.
In the case of `CC(SC1=NCCS1)C(=O)Nc1nnc(-c2ccc(Br)cc2)s1` (configuration not stated), the Potency is reported as inconclusive: 2.82 µM [inhibitor, full curve, poor fit].
With `O=C(CSc1nncs1)NC1CCCCCCC1` the Potency was inconclusive: 6.31 µM [inhibitor, single point].
In the case of `CC(CN1CCOCC1)OC(=O)c1ccccc1Cl` (configuration not stated), the Potency is reported as inconclusive: 35.5 µM [inhibitor, single point].
In the case of `COC(=O)c1nn2c(C(F)(F)F)cc(-c3ccc(Br)o3)nc2c1Br`, the Potency is reported as inconclusive: 28.2 µM [inhibitor, single point].
With `CCOc1ccc(N=C2NC(=O)S/C2=C\c2ccc(N(C)C)cc2)cc1` the Potency was inconclusive: 11.2 µM [inhibitor, partial curve, poor fit].
With `CCc1nnc(NC(=O)c2nc(S(C)(=O)=O)ncc2Cl)s1` the “activity, negative = active” value was inactive: -1.05%.
For `O=C(CSc1nc2c([nH]c3ccccc32)c(=O)n1-c1cccc(Cl)c1)N1CCc2ccccc21`, the “activity, negative = active” value was inactive: 6.86%.
For `CCc1ccccc1N(CC(=O)NC(C)(C)C)C(=O)CCC(=O)Nc1ccccn1`, the Potency was inconclusive: 17.8 µM [inhibitor, single point].
With `Cc1ccc2nc(NCc3ccccc3Cl)c3nnnn3c2c1` the Potency was inconclusive: 20 µM [inhibitor, partial curve, poor fit].
With `Cc1ccc(/C=C2/NC(=O)N(Cc3ccccc3)C2=O)s1` the Potency was active: 22.4 µM.
With `Cc1ccc(/C=N/c2sc(Cc3ccccc3)c(C)c2C(N)=O)o1` the Potency was inconclusive: 28.2 µM [inhibitor, single point].
With `Cc1cc(C)n(Cc2ccc(Cl)nc2)n1` the Potency was inconclusive: 0.631 µM [inhibitor, full curve, poor fit].
With `O=S(=O)(NCC(Nc1ccc(Cl)cc1)c1ccccc1)c1ccc(Cl)cc1` (configuration not stated) the “activity, negative = active” value was inactive: -18.2%.
For `C=CCSc1nnc(C)c(/C=C/Nc2ccc(Cl)cc2)n1`, the Potency was active: 25.1 µM.
With `Cn1c(SC2=CS(=O)(=O)c3ccccc32)nc2ccccc21` the “activity, negative = active” value was inactive: 5.78%.
With `CCN(CC)c1nc2ccccc2nc1C(C#N)C(=O)NCCc1ccccc1` (configuration not stated) the Potency was inconclusive: 10 µM [inhibitor, partial curve].
With `Fc1ccc(N2CCN(c3nc(-c4ccco4)cc(C(F)(F)F)n3)CC2)cc1` the “activity, negative = active” value was inactive: 7.21%.
For `CCOC(=O)C1=C(C)Nc2ccccc2N/C1=N\S(=O)(=O)c1ccc(Cl)cc1`, the “activity, negative = active” value was inactive: -12.6%.
With `CCC1Oc2ccccc2N(CC(=O)NCc2cc(OC)ccc2OC)C1=O` (configuration not stated) the “activity, negative = active” value was inactive: -1.07%.
With `O=c1[nH]c(C(Cl)Cl)nc2sc3c(c12)CCN(Cc1ccccc1)C3` the Potency was inconclusive: 7.08 µM [inhibitor, full curve, poor fit].
